Measurements as given in publication PMC6962311.
These are yes or no findings as the source states them, for the method shown. Binding calls can cover weak binding; strength is not graded here.

Molecular target: ino2 (An02g04350p), bHLH transcription factor of Aspergillus niger (Aspergillus niger) (UniProt A2QCQ1)
Assay: two-hybrid; pGBKT7 baits in S. cerevisiae Y2HGold mated with pGADT7 preys in S. cerevisiae Y187; mated strains plated on DDO (SD/-Leu/-Trp), positive colonies inoculated on QDO/X/A (SD/-Ade/-His/-Leu/-Trp with X-a-Gal and Aureobasidin A)

Substance: Opi1p (An15g02370p) of Aspergillus niger (from UniProt A2R518)
- binding: binds
